Source: publication PMC4228979, “Conserved cis-regulatory modules in promoters of genes encoding wheat high-molecular-weight glutenin subunits”

Target: T1, His-SPA (Storage Protein Activator, bZIP) (UniProt A0A9R1IS55)
T1 sequence (looked up, limits assumed): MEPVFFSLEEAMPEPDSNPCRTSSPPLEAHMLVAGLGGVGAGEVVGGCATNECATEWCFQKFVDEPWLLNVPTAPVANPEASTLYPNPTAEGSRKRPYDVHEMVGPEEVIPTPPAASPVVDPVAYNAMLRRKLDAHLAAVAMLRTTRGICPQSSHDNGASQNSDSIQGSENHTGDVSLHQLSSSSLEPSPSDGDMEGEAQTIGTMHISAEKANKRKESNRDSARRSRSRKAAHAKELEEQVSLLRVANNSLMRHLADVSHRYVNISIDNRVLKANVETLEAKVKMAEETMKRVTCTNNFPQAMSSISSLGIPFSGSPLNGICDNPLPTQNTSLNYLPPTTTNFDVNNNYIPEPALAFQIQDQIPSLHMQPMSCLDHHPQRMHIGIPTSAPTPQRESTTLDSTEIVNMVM
Experiment: EMSA
Details: 10 mM Tris pH 7.5, 100 mM KCl, 2 mM DTT, 2 mM EDTA, 10% glycerol, 0.05% nonyl phenoxypolyethoxylethanol, 0.5 mM PMSF, 100 ng/uL poly(dI.dC), 250 ng/uL fish sperm DNA; recombinant protein; protein details: His tag (pDEST17); label: 3' biotin on each strand

| Sequence | binding result |
| --- | --- |
| ATAGATATTTTTATTAAGCATGGA (double strand) [glm2] | no binding |
| ATAGATGTTGTGAGTCATTGGATAG (double strand) [GLM1 (-647)] | binds more weakly |
| GCCCATTACGTGGCTTTAGCAGACC (double strand) [G-box (-227)] | binds more weakly |

The exact form of at least one protein or probe is not confirmed. Negatives hold for the conditions tested. Where a protein sequence is shown, tags need not be part of it. A weaker result is weaker than the reference pair of the same experiment.
